PubChem BioAssay AID1053208 – Peter MacCallum Cancer Centre, 2014
The deposit covers about 17,000 reagents; shown is a random part of them. In the full data, 788 (4.7%) got an active call. 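Calls rest on z-score classes alone; an extra cut-off of viability at most 70% of control was not applied to them.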 Not all columns of the deposit are shown.

Test: 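Synthetic lethal interactions between gene loss and doxorubicin in osteosarcoma cells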 (primary screen)
System: mouse osteosarcoma cells, early-passage culture from an engineered mouse model of fibroblastic bone tumour
Reagent: siRNA pool against mouse genes, 40 nM
Duration: about 120 h (48 h before drug, then 72 h with drug)
Treatment: doxorubicin 100 nM for 72 h, roughly 30-40% inhibitory dose
Read-out: 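Viability read as ATP luminescence after 72 h of 100 nM doxorubicin or none, duplicate wells averaged, scaled to non-targeting siRNA, then expressed as robust z-scores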
Reading the numbers: viability z-score with doxorubicin: higher = more viable cells under doxorubicin; viability z-score without drug: higher = more viable cells with knock-down alone
Rule for the call: 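Called active if knock-down leaves viability unchanged without drug (z within -2 to 2) but lowers it with doxorubicin (z at or under -2)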

What did the screen give for Elf4 (E74 like ETS transcription factor 4)?
combined z-score class: high cell count with doxorubicin only; viability z-score with doxorubicin: 2.92; viability z-score without drug: 0.67; activity call: inactive

For Irf1 (interferon regulatory factor 1), what was measured?
combined z-score class: high cell count without drug only; viability z-score with doxorubicin: 0; viability z-score without drug: 3.37; activity call: inactive

With Or9m1 (olfactory receptor family 9 subfamily M member 1), what does the deposit list?
combined z-score class: no change with or without drug; viability z-score with doxorubicin: -1.8; viability z-score without drug: -1.35; activity call: inactive

What did the screen give for Azin1 (antizyme inhibitor 1)?
combined z-score class: no change with or without drug; viability z-score with doxorubicin: 0.22; viability z-score without drug: 0.51; activity call: inactive

How did the screen score Vhl (von Hippel-Lindau tumor suppressor)?
combined z-score class: no change with or without drug; viability z-score with doxorubicin: 0; viability z-score without drug: -0.51; activity call: inactive

How did the screen score Synm (synemin, intermediate filament protein)?
combined z-score class: high cell count without drug only; viability z-score with doxorubicin: 1.35; viability z-score without drug: 2.36; activity call: inactive

What is on record for Mphosph6 (M phase phosphoprotein 6)?
combined z-score class: no change with or without drug; viability z-score with doxorubicin: 1.69; viability z-score without drug: 0.17; activity call: inactive

For Setd5 (SET domain containing 5), what does the deposit list?
combined z-score class: no change with or without drug; viability z-score with doxorubicin: -0.22; viability z-score without drug: -0.84; activity call: inactive

What did the screen give for Stard4 (StAR related lipid transfer domain containing 4)?
combined z-score class: no change with or without drug; viability z-score with doxorubicin: 0; viability z-score without drug: 0.51; activity call: inactive

With Prtn3 (proteinase 3), what was measured?
combined z-score class: no change with or without drug; viability z-score with doxorubicin: 0.11; viability z-score without drug: 1.18; activity call: inactive

What did the screen give for Oas1a (2'-5' oligoadenylate synthetase 1A)?
combined z-score class: no change with or without drug; viability z-score with doxorubicin: 1.01; viability z-score without drug: 0.34; activity call: inactive

For Pim2 (Pim2, proto-oncogene, serine/threonine kinase), what was measured?
combined z-score class: no change with or without drug; viability z-score with doxorubicin: 0.22; viability z-score without drug: 0.67; activity call: inactive

With Dctn2 (dynactin 2), what was measured?
combined z-score class: no change with or without drug; viability z-score with doxorubicin: 0.67; viability z-score without drug: 1.18; activity call: inactive

How did the screen score Chek2 (checkpoint kinase 2)?
combined z-score class: no change with or without drug; viability z-score with doxorubicin: -0.45; viability z-score without drug: -0.17; activity call: inactive

For Or1e19 (olfactory receptor family 1 subfamily E member 19), what was measured?
combined z-score class: no change with or without drug; viability z-score with doxorubicin: 1.01; viability z-score without drug: -0.51; activity call: inactive

For Trpm2, what was measured?
combined z-score class: no change with or without drug; viability z-score with doxorubicin: -1.01; viability z-score without drug: 1.18; activity call: inactive

For Ubl4a (ubiquitin-like 4A), what was measured?
combined z-score class: no change with or without drug; viability z-score with doxorubicin: 1.12; viability z-score without drug: 1.35; activity call: inactive

With Psma4 (proteasome subunit alpha 4), what was measured?
combined z-score class: low cell count with and without drug; viability z-score with doxorubicin: -4.27; viability z-score without drug: -3.04; activity call: inactive

Which result is listed for Cmbl (carboxymethylenebutenolidase homolog)?
combined z-score class: high cell count with and without drug; viability z-score with doxorubicin: 2.02; viability z-score without drug: 3.2; activity call: inactive

For Hras (Hras proto-oncogene, GTPase), what was measured?
combined z-score class: no change with or without drug; viability z-score with doxorubicin: 0.45; viability z-score without drug: 1.52; activity call: inactive

With Nemp1 (nuclear envelope integral membrane protein 1), what does the deposit list?
combined z-score class: no change with or without drug; viability z-score with doxorubicin: 0.67; viability z-score without drug: 0.17; activity call: inactive

With Or51b6 (olfactory receptor family 51 subfamily B member 6), how do the results read?
combined z-score class: no change with or without drug; viability z-score with doxorubicin: -1.46; viability z-score without drug: -0.84; activity call: inactive

For D630005C06RIK, what was measured?
combined z-score class: no change with or without drug; viability z-score with doxorubicin: -1.57; viability z-score without drug: 1.52; activity call: inactive

With Gpr26 (G protein-coupled receptor 26), how do the results read?
combined z-score class: no change with or without drug; viability z-score with doxorubicin: 0.22; viability z-score without drug: -0.17; activity call: inactive

For Rgs14 (regulator of G-protein signaling 14), how do the results read?
combined z-score class: no change with or without drug; viability z-score with doxorubicin: 0.67; viability z-score without drug: -1.18; activity call: inactive

With Otp (orthopedia homeobox), what does the deposit list?
combined z-score class: low cell count with and without drug; viability z-score with doxorubicin: -3.71; viability z-score without drug: -2.19; activity call: inactive

What did the screen give for Bach1?
combined z-score class: high cell count with and without drug; viability z-score with doxorubicin: 3.04; viability z-score without drug: 2.53; activity call: inactive

For C2cd4c (C2 calcium-dependent domain containing 4C), what does the deposit list?
combined z-score class: no change with or without drug; viability z-score with doxorubicin: 0.34; viability z-score without drug: 0.17; activity call: inactive

Reformatted: results already given
{"target":"Stard4 (StAR related lipid transfer domain containing 4)","combined z-score class":"no change with or without drug","viability z-score with doxorubicin":0,"viability z-score without drug":0.51,"activity call":"inactive"}
{"target":"Prtn3 (proteinase 3)","combined z-score class":"no change with or without drug","viability z-score with doxorubicin":0.11,"viability z-score without drug":1.18,"activity call":"inactive"}
{"target":"Oas1a (2'-5' oligoadenylate synthetase 1A)","combined z-score class":"no change with or without drug","viability z-score with doxorubicin":1.01,"viability z-score without drug":0.34,"activity call":"inactive"}
{"target":"Pim2 (Pim2, proto-oncogene, serine/threonine kinase)","combined z-score class":"no change with or without drug","viability z-score with doxorubicin":0.22,"viability z-score without drug":0.67,"activity call":"inactive"}
